From paper PMC4624580
Results are given in words; binding and its absence hold for the method and conditions named. In cells and extracts the contact can be indirect. Some entries that bind do so weakly or less than the wild type.

Amino acid sequences for entries named in this document (tags omitted). A change or cut given only in a name is not applied to a line headed by its entry.
UniProt P40337: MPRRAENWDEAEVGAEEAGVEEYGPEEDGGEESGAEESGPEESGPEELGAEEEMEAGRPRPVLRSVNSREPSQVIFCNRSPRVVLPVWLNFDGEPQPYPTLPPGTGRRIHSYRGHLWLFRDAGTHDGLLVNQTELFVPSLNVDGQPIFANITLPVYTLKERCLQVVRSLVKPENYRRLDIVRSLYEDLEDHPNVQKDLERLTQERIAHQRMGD
UniProt Q16763: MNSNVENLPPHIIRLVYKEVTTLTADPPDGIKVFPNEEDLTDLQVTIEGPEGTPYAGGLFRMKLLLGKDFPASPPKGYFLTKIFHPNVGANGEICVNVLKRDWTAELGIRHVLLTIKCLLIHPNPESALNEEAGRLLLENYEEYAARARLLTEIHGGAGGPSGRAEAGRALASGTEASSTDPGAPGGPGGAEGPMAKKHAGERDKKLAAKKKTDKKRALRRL

Tests used:
Assay in all cases: pull-down; HEK293T transfected with GST-tagged mutant VHL and/or Flag-UCP, MG132 for 16 h; GST pull-down; bound UCP detected by immunoblot
[1] = biological target: GST-tagged pVHL L158Q, in HEK293T (UniProt P40337)
[2] = biological target: GST-tagged pVHL Q164R, in HEK293T (UniProt P40337)
[3] = biological target: GST-tagged pVHL V155A, in HEK293T (UniProt P40337)

binding [1]: binds
binding [2]: binds
binding [3]: binds
Substance: Flag-UCP (E2-EPF ubiquitin carrier protein), in HEK293T (from UniProt Q16763 1-222) (enzyme)
